# Results: PubChem BioAssay AID720517 (National Center for Advancing Translational Sciences (NCATS), 2013)
# The shares of active, inactive and inconclusive entries below differ from those in the screen. Potencies beside an inconclusive call are fits to weak or partial responses and may not hold up. Calls of active or inactive are those of the source. The call rests on the fitted dose curve; in most records, active means well fitted activation curve with a large enough effect; inconclusive means small, poorly fitted or top-dose-only effect; inactive means flat fitted curve, though single readings scatter.
# Assay: qHTS for Inhibitors of Cell Surface uPA Generation: FP59 Counterscreen for Cherry-picked Compounds
# Conditions: FP59 anthrax toxin cytotoxicity counterscreen, cells; series mostly up to 115 µM
# Potency means the concentration at half of the fitted maximal effect.
row,Compound,Potency
1,COc1ccc(C)cc1NC(=O)NNC(=O)C1CCC(C(C)(C)C)CC1 (stereo not drawn),inactive
2,Cc1ccc(Nc2cc(C)c3ccc(O)cc3n2)cc1C,"inconclusive: 14.7 µM [activator, full curve]"
3,C[C@@H](NC(=O)c1nc[nH]c1C(=O)NCc1ccc(CNC(=O)OC(C)(C)C)cc1)c1ccccc1,active: 58.5 µM
4,C[C@H]1CN([C@@H](C)CO)C(=O)c2cc(NS(=O)(=O)c3ccc(Cl)cc3)ccc2O[C@@H]1CN(C)CC1CCCCC1,"inconclusive: 73.6 µM [activator, partial curve]"
5,COc1ccc(CCNC(=O)c2c([S-])n(-c3ccc(C)cc3)c3cccc[n+]23)cc1,"inconclusive: 58.5 µM [activator, partial curve]"
6,O=C1CC(SC(=Nc2ccccc2)Nc2ccccc2)C(=O)N1c1cccc(Cl)c1 (stereo not drawn),"inconclusive: 46.5 µM [activator, full curve]"
7,CC1=CC(C)(C)N2C(=O)C3(NCCc4c3[nH]c3ccccc43)c3cc(C)cc1c32 (stereo not drawn),"inconclusive: 8.26 µM [activator, full curve, poor fit]"
8,COc1cc(N/C(N)=N/c2nc(C)cc(C)n2)cc(OC)c1,inactive
9,CCC(C(=O)NCc1ccc(C)cc1)c1ccccc1 (stereo not drawn),inactive
10,O=S(=O)(c1ccc2nc(N3CCN(c4ccccc4)CC3)ccc2c1)N1CCCCC1,inactive
11,C=CC(=O)N1C/C(=C/c2ccccc2)C(=O)/C(=C\c2ccccc2)C1,active: 13.1 µM
12,COc1ccc(C(C(=O)NC2CCCC2)N(C(=O)c2ccoc2C)c2ccc(C)c(C)c2)cc1 (stereo not drawn),"inconclusive: 73.6 µM [activator, partial curve]"
13,COc1ncnc(NS(=O)(=O)c2ccc(N)cc2)c1OC,inactive
14,COC(=O)[C@]1(Cc2ccccc2)N[C@H](CN(C)C(=O)Nc2ccc(F)cc2)[C@@H]2C(=O)N(Cc3ccccc3)C(=O)[C@@H]21,"inconclusive: 23.3 µM [activator, single point]"
15,O=C1NC(=S)S/C1=C\C=C\c1ccc([N+](=O)[O-])o1,"inconclusive: 46.5 µM [activator, partial curve]"
16,CC(=O)NC(=S)Nc1ccc([N+](=O)[O-])cc1C,inactive
17,Cc1nc2nc(C)c(NS(=O)(=O)c3ccc(Cl)cc3)c(=O)n2[nH]1,inactive
18,CCCCn1c(SCC(=O)Nc2cc(C(F)(F)F)ccc2Cl)nnc1C(CC)N(C)C (stereo not drawn),"inconclusive: 147 µM [activator, partial curve]"
19,COc1cc2c(OC(C)=O)c3c(c(-c4ccc5c(c4)OCO5)c2cc1OC)C(=O)OC3,"inconclusive: 8.26 µM [activator, full curve]"
20,C/C(=N\NC(=S)Nc1c(C)cccc1C)c1ccc(OC(F)F)cc1,"inconclusive: 92.7 µM [activator, single point]"
21,COc1ccc(C2NC(=O)CCC2[N+](=O)[O-])c(OC)c1OC (stereo not drawn),inactive
22,COc1ccc(/C=N/Nc2cc(N3CCCC3)nc(N3CCCC3)n2)cc1,"inconclusive: 13.1 µM [activator, partial curve, poor fit]"
23,CCC1Nc2ncnc(N3CCCCC3)c2N(Cc2ccc(Cl)cc2)C1=O (stereo not drawn),"inconclusive: 73.6 µM [activator, partial curve, poor fit]"
24,C=C(C)c1cccc(C(C)(C)NC(=O)Nc2cc(C)ccn2)c1,"inconclusive: 104 µM [activator, partial curve, poor fit]"
25,C=C1C(=O)[C@@]23[C@H](O)C[C@@H]4C(C)(C)CC[C@H](O)[C@]4(C)[C@@H]2C[C@H](O)[C@@H]1[C@H]3O,"inconclusive: 52.1 µM [activator, partial curve]"
26,COc1ccc(NS(=O)(=O)c2cccc(C(=O)NCc3ccccc3CN3CCCC3)c2)cc1,"inconclusive: 14.7 µM [activator, full curve]"
27,O=C1C=CC(O)(c2cc(=O)c3c(O)cc(O)cc3o2)C=C1,active: 14.7 µM
28,CC1=CC(C)C(C[N+]2(C)CCCCC2)C(C)C1 (stereo not drawn),inactive

# An excerpt from above in order of formula weight, rising:
row,Compound,Potency
2,Cc1ccc(Nc2cc(C)c3ccc(O)cc3n2)cc1C,"inconclusive: 14.7 µM [activator, full curve]"
24,C=C(C)c1cccc(C(C)(C)NC(=O)Nc2cc(C)ccn2)c1,"inconclusive: 104 µM [activator, partial curve, poor fit]"
21,COc1ccc(C2NC(=O)CCC2[N+](=O)[O-])c(OC)c1OC (stereo not drawn),inactive
25,C=C1C(=O)[C@@]23[C@H](O)C[C@@H]4C(C)(C)CC[C@H](O)[C@]4(C)[C@@H]2C[C@H](O)[C@@H]1[C@H]3O,"inconclusive: 52.1 µM [activator, partial curve]"
19,COc1cc2c(OC(C)=O)c3c(c(-c4ccc5c(c4)OCO5)c2cc1OC)C(=O)OC3,"inconclusive: 8.26 µM [activator, full curve]"
6,O=C1CC(SC(=Nc2ccccc2)Nc2ccccc2)C(=O)N1c1cccc(Cl)c1 (stereo not drawn),"inconclusive: 46.5 µM [activator, full curve]"
12,COc1ccc(C(C(=O)NC2CCCC2)N(C(=O)c2ccoc2C)c2ccc(C)c(C)c2)cc1 (stereo not drawn),"inconclusive: 73.6 µM [activator, partial curve]"
4,C[C@H]1CN([C@@H](C)CO)C(=O)c2cc(NS(=O)(=O)c3ccc(Cl)cc3)ccc2O[C@@H]1CN(C)CC1CCCCC1,"inconclusive: 73.6 µM [activator, partial curve]"
